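Genome-wide siRNA knockdown in TC32 Ewing sarcoma cells, comparing luciferase light from an NR0B1-promoter reporter with a CMV-promoter reporter 48 hours after transfection.
Each siRNA was applied at 20 nM.
A z-score of the log NR0B1-over-CMV signal, less the median of siRNAs with the same seed; more negative means a stronger specific loss of the NR0B1 reporter.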

The strongest results of the screen are mostly left out here.
Sequences are the guide (antisense) strand, without overhang.

| # | siRNA | target gene | seed-corrected z-score |
|---|---|---|---|
| 1 | `GCACGUGCAAGAUGGGAUC` | C16orf13 | 0.2572 |
| 2 | `UUUAGUACUUAUGUCUUGC` | C14orf39 | 0.3336 |
| 3 | `UUCCUGAUAUCGUGAAGGC` | FTHL17 | 0.4173 |
| 4 | `UAACCUAUCACUCUCGUUG` | NLRP4 | 0.4804 |
| 5 | `ACUGUAAUCAUCGCUGUUG` | SRY | -0.05127 |
| 6 | `UUUGGGUUAACUGAAUCAC` | C1orf146 | 0.1133 |
| 7 | `AAGGUGAUCGAUGUUGAGC` | TNNT3 | -0.53 |
| 8 | `ACAGAGACCUUUAUGGUGG` | KIAA1211L | 0.02137 |
| 9 | `AUAGUGGUCAUUCACAUAC` | CAPZA3 | -1.123 |
| 10 | `UCUGUUAAAUAGGAAGUAC` | NIPA1 | 0.3212 |
| 11 | `UGUUCUCACACCCUUGAAC` | ACRV1 | 0.4958 |
| 12 | `AAUGAUGUCGGAGACAUGG` | FBLL1 | 0.8697 |
| 13 | `UGGAGGAACAGAUAAAAGA` | OGG1 | -0.174 |
| 14 | `UGCAUAUAAAAGGUCUUUC` | SP4 | -0.03482 |
| 15 | `UUUGUUCAUUAGGCUGUUU` | CCDC167 | 0.4354 |
| 16 | `AAAAUGUGAAGUGCAACAG` | TRIP13 | 0.4848 |
| 17 | `UUAACUCUGAUUUGAGAUC` | ANXA7 | 0.7063 |
| 18 | `UUUGUUCAGUUUGUAGCCC` | LOC81691 | 0.114 |
| 19 | `UUGUUGUCCUGUGAGUACU` | TMC8 | 0.6222 |
| 20 | `AGCGGAAAGAUUCUGGGCC` | ATAT1 | 0.7326 |
| 21 | `UGUGCGAUGCAGGAUCACG` | GLTSCR1 | 1.149 |
| 22 | `AAGGAGAUUAGUCACACUG` | C3orf36 | -0.3041 |
| 23 | `UUCCCGACAUCCAACUUGC` | BCAP31 | 0.03121 |
| 24 | `UAUUCUUCCCGUUACUUGG` | CAPZA3 | 0.4232 |
| 25 | `UCUAAUCUCCUAAAAGUGC` | CD274 | 0.1608 |
| 26 | `UUCAUCAAAAUAUACUCCC` | RARS2 | 0.1541 |
| 27 | `UCAGUAAUAAAUGCAGCUG` | LOC729088 | 0.2841 |
| 28 | `UUUAACUCAAUAAUCUCGU` | IQCE | 0.227 |
| 29 | `UAGGUUUGGUCAUAGAUAG` | THBS2 | -0.7086 |
| 30 | `AAUCGAAUCAGACAAUCUG` | TRIP11 | 0.0283 |
| 31 | `AAAGUGAUCUGGAUUGCUC` | PIH1D2 | 0.8655 |
| 32 | `UGGAGUAACACUGCGCUGC` | ARPC5L | -0.29 |
| 33 | `ACCACAAUCAUUACUGGUC` | EPHA6 | 0.09375 |
| 34 | `AACUGUACUCUGUUGGGCC` | COL6A4P1 | 0.9417 |
| 35 | `UCGAAAUUCACGCAUAUCC` | ERCC4 | -0.1858 |
| 36 | `UCUGGCUAGGGAGACACUC` | LOC646012 | -0.04435 |
| 37 | `AUACUUUUUACGGAAGGAC` | PEBP1 | -1.386 |
| 38 | `UUGCAGAACACCGACGAGC` | RPH3AL | 0.5356 |
| 39 | `UUGGUGAUCAUGACGAUGC` | PTPRU | 0.3078 |
| 40 | `UGAAGAUUCAAAUUGCAUC` | IL18 | 0.8673 |
| 41 | `UUAGUUCAGGGUUUACAUC` | CSRP2 | -0.59 |
| 42 | `UUUAGUUAGCCCAUGAAGC` | SMDT1 | -0.01509 |
| 43 | `AGAUGAUUCAGAUCCAUUG` | CFAP97 | -0.04746 |
| 44 | `UUUUGCUUUAGUGACGCCC` | TPPP3 | -0.02579 |
| 45 | `UCACUUAUAGCACGCCCAC` | GPR78 | -0.2897 |
| 46 | `AAAGAUGUGCAAGAAAAGC` | LOC728158 | -0.2984 |
| 47 | `UCUGGGACCUGGAACAAGC` | IQCF3 | 0.2522 |
| 48 | `UCCGUGACCACCAUCUCCU` | ITM2C | -0.2161 |
| 49 | `UAUGUUAUGGGCUCCAAGG` | CMA1 | -0.4129 |
| 50 | `UAAGGCACUAAUGUAGGAC` | PSMB8 | 0.2666 |
| 51 | `UCGGCUAAAGCUCAGCUCU` | PHB2 | 0.2651 |

Once more, the final 6:

* AAAGAUGUGCAAGAAAAGC against LOC728158 : seed-corrected z-score -0.2984
* UCUGGGACCUGGAACAAGC against IQCF3 : seed-corrected z-score 0.2522
* UCCGUGACCACCAUCUCCU against ITM2C : seed-corrected z-score -0.2161
* UAUGUUAUGGGCUCCAAGG against CMA1 : seed-corrected z-score -0.4129
* UAAGGCACUAAUGUAGGAC against PSMB8 : seed-corrected z-score 0.2666
* UCGGCUAAAGCUCAGCUCU against PHB2 : seed-corrected z-score 0.2651

Data taken from PubChem BioAssay AID1159506, deposited by NCATS (2015).